Measured values published in PubChem BioAssay AID504834 (National Center for Advancing Translational Sciences (NCATS), 2011).
Values joined by “and” are separate entries in the source; they are usually repeats but may differ in a detail not shown here. Equal values may be shown once. In all, about 320,000 compounds went through this assay and about 22,000 (6.9%) were called active. This list was built around the results that the source calls inconclusive (neither active nor inactive); the mix of calls is not that of the screen. Calls come from the whole dose curve; as a rule, active = well fitted inhibition curve with a large enough effect; inconclusive = small, poorly fitted or top-dose-only effect, or another doubt; inactive = no such curve, though single readings can be large or run the other way. Potencies of inconclusive entries are doubtful fits and often do not repeat.

test: Primary qHTS for delayed death inhibitors of the malarial parasite plastid, 96 hour incubation; details: P. falciparum luciferase reporter growth; series mostly up to 28.7 µM
Method in brief: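 Luminescence readout: decreased luciferase signal marks inhibited growth of reporter-expressing P. falciparum in infected red cells (2% hematocrit, 0.05% parasitemia final), exposed to compound two generations (96 h, 37 C, 5% CO2).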
Potency is the fitted concentration of half-maximal effect.

SMILES | Potency
CCOC(=O)c1ccc(N2C(=O)CC(N3CCC(C(N)=O)(N4CCCCC4)CC3)C2=O)cc1 (stereo unspecified) | inconclusive: 4.65 µM [inhibitor, partial curve, poor fit]
CC1(C(=O)NCCc2c[nH]c3ccccc23)C=CCN1C(=O)c1ccccc1 (stereo unspecified) | inconclusive: 18.5 µM [inhibitor, single point]
CCOC(=O)C1(CCOc2ccccc2)CCN(Cc2ccccc2OC)CC1 | inconclusive: 16.5 µM [inhibitor, single point]
CN(C)S(=O)(=O)c1ccc(-c2ccccc2)cc1 | inconclusive: 8.28 µM [inhibitor, partial curve, poor fit]
Cc1ccc2oc(C(=O)N(C)Cc3ccon3)c(C)c2c1 | inactive
CC(=O)Nc1ccc(NS(=O)(=O)c2ccccc2)c2ccccc12 | inactive
O=P(C1=C(N2CCOCC2)/C(=C\c2ccccc2)CC1)(N1CCOCC1)N1CCOCC1 | inactive
Cc1cccc2c1[nH]c1nc(N/N=C\c3ccco3)nnc12 | inactive
Cc1ccc2sc(N(CCN(C)C)C(=O)c3ccc4ccccc4c3)nc2c1C | inconclusive: 18.5 µM [inhibitor, single point]
O=C(/C(=C/O)N=Nc1ccc(Cl)cc1)c1ccncc1 | inconclusive: 18.5 µM [inhibitor, single point]
COC(=O)CNc1ccc2c(c1)OCO2 | inconclusive: 8.28 µM [inhibitor, partial curve]
Cc1c(C(=O)Nc2ccc(S(=O)(=O)N(C)C3CCN(C)CC3)cc2)oc2c(Cl)cccc12 | active: 2.62 µM
O=C(CN1C(=O)NC(Cc2c[nH]c3ccccc23)C1=O)Nc1ccc(F)c(F)c1F (stereo unspecified) | inconclusive: 18.5 µM [inhibitor, single point]
O=C(Oc1nsnc1N1CCOCC1)N1CCOCC1 | inconclusive: 10.4 µM [inhibitor, partial curve]
CN(Cc1ccc2c(c1)OCCO2)C(=O)CN1C(=O)NC2(CCCCC2)C1=O | inactive
O=C(CCC(=O)Nc1nnc(C2CCCCC2)s1)NCC1CCCO1 (stereo unspecified) | inactive
CC(C)(C)C(=O)C(Oc1cccc2nonc12)n1cncn1 (stereo unspecified) | inactive
Cc1ccc(S(=O)(=O)N2CCN(Cc3ccccn3)CC2)cc1 | inactive
O=S(=O)(NC1CC2CCC1C2)c1ccc(Br)s1 (stereo unspecified) | inconclusive: 18.5 µM [inhibitor, single point]
COc1ccccc1NS(=O)(=O)c1ccc(C)c(C(=O)NCCCN2CCCC2=O)c1 | inconclusive: 6.57 µM [inhibitor, partial curve, poor fit]
O=[N+]([O-])c1cc(C(F)(F)F)ccc1Sc1ccccn1 | inconclusive: 0.165 µM [inhibitor, full curve, poor fit]
Cc1ccc(S(=O)(=O)N2CCCCC2)cc1NC(=O)COC(=O)C1CC2C=CC1C2 (stereo unspecified) | inconclusive: 2.94 µM [inhibitor, single point]
CN(CC(=O)NCC(c1ccccc1)N1CCCC1)S(=O)(=O)c1ccc(Cl)cc1 (stereo unspecified) | active: 8.28 µM
Cc1noc(C)c1COc1ccc(C(=O)Nc2nnc(CC(C)C)s2)cc1 | inconclusive: 13.1 µM [inhibitor, single point]

As a short view, 3 of the compounds above:
SMILES | Potency
CN(Cc1ccc2c(c1)OCCO2)C(=O)CN1C(=O)NC2(CCCCC2)C1=O | inactive
O=C(CCC(=O)Nc1nnc(C2CCCCC2)s1)NCC1CCCO1 (stereo unspecified) | inactive
CC(C)(C)C(=O)C(Oc1cccc2nonc12)n1cncn1 (stereo unspecified) | inactive

As entered above.
Entry for CN(CC(=O)NCC(c1ccccc1)N1CCCC1)S(=O)(=O)c1ccc(Cl)cc1 (stereo unspecified) under Potency: active: 8.28 µM
Entry for Cc1cccc2c1[nH]c1nc(N/N=C\c3ccco3)nnc12 under Potency: inactive
Entry for O=P(C1=C(N2CCOCC2)/C(=C\c2ccccc2)CC1)(N1CCOCC1)N1CCOCC1 under Potency: inactive
Entry for Cc1noc(C)c1COc1ccc(C(=O)Nc2nnc(CC(C)C)s2)cc1 under Potency: inconclusive: 13.1 µM [inhibitor, single point]

(next part)

SMILES | Potency
O=C(Nc1cccc(-c2nc3ccccc3s2)c1)c1cccs1 | inconclusive: 13.1 µM [inhibitor, single point]
c1ccc(CN2CCC(N3CCC(N4CCCCCC4)CC3)CC2)cc1 | active: 8.28 µM
OCC1(Cc2ccccc2)CCN(Cc2cnc(-c3ccc(Cl)cc3)nc2)CC1 | inactive
CCCCN(CC)C(=O)c1ccccc1Oc1ccccc1 | inconclusive: 11.7 µM [inhibitor, partial curve, poor fit]
COc1ccc(/C=C/C(=O)c2ccc(OC)cc2OC)cc1 | active: 4.15 µM and active: 1.69 µM
Cc1cc(C)n(-c2ccc(C(=O)N3CCN(S(=O)(=O)c4ccc(C(C)C)cc4)CC3)cc2)n1 | inconclusive: 8.28 µM [inhibitor, partial curve, poor fit]
Cc1cccc(OCc2nnc(SCC(=O)Nc3cccc(C(=O)N4CCOCC4)c3)o2)c1C | inactive
Cc1ccc2c(c1)sc[n+]2Cc1ccccc1 | inactive
CCCc1cc(=O)[nH]c(Nc2ccc(Cl)cc2)n1 | inconclusive: 9.28 µM [inhibitor, single point]
O=C(Nc1cccnc1)c1cc(Br)c(Br)s1 | active: 11.7 µM
Cc1cccc(OCC(=O)Nc2ccc3c(c2)nc2n3CCOC2)c1 | inactive
CCn1c(SCC(=O)Nc2sc3c(c2C#N)CCCC3)nnc1-c1ccncc1 | inconclusive: 18.5 µM [inhibitor, single point]
COc1ccc(N/N=C/c2c(C(=O)O)ccc3ccccc23)cc1 | active: 7.38 µM
CCNS(=O)(=O)c1ccc(S(=O)(=O)N(Cc2ccccn2)C2CCCCC2)cc1 | inactive
COCCNC(=O)CCc1nnc(C2(c3ccc(Cl)cc3)CCC2)o1 | inconclusive: 2.94 µM [inhibitor, full curve, poor fit]
CCCN1CCC(=O)N([C@H](CSc2ccccc2)c2ccccc2)CC1 | inconclusive: 11.7 µM [inhibitor, single point]
CCN(CC)CCNC(=O)c1c(C)oc2cc(Br)c(OC)cc12 | inconclusive: 0.522 µM [inhibitor, full curve, poor fit]
CN(Cc1ccccn1)C(=O)c1ccc2nc(Cc3cccc(Cl)c3)oc2c1 | inconclusive: 18.5 µM [inhibitor, single point]
O=C(NC12CC3CC(CC(C3)C1)C2)C1CC(=O)N(c2ccccc2)C1 (stereo unspecified) | inconclusive: 11.7 µM [inhibitor, partial curve]
CC(C(=O)O)c1ccc(C(=O)c2cccs2)cc1 (stereo unspecified) | inactive
O=C1C(Cc2ccccc2)S/C(=N/N=C/c2ccco2)N1c1ccccc1 (stereo unspecified) | active: 0.262 µM
O=C(OCCN1CCOCC1)c1cccc(F)c1 | inconclusive: 13.1 µM [inhibitor, partial curve, poor fit]
CC(C)[C@H](NS(=O)(=O)c1ccccc1)C(=O)OCC(=O)Nc1ccc2c(c1)OCO2 | inactive
NC(=S)N/N=C/c1ccccc1[N+](=O)[O-] | inconclusive: 18.5 µM [inhibitor, single point]

SMILES | Potency
CC(C)(C)c1cc(NC(=O)c2c(F)cccc2Cl)n(-c2ccccc2)n1 | inconclusive: 1.65 µM [inhibitor, full curve, poor fit]
CCCCN(C(=O)c1oc2ccc(OCC)cc2c1C)c1c(N)n(CC(C)C)c(=O)[nH]c1=O | inconclusive: 18.5 µM [inhibitor, single point]
CCn1c(NCCO)nc2c(c1=O)C(C)(CC)Cc1ccccc1-2 (stereo unspecified) | inconclusive: 18.5 µM [inhibitor, single point]
Cc1ccccc1CN1C(=O)CS/C1=N/N=C/c1ccco1 | inconclusive: 11.7 µM [inhibitor, single point]
CCCS(=O)(=O)c1c(S(=O)(=O)CCC)c2ccc(C(N)=O)cn2c1C(=O)OC | inconclusive: 10.4 µM [inhibitor, single point]
CC1CN(S(=O)(=O)c2ccc(C(=O)N(CCCN(C)C)c3nc4cc5c(cc4s3)OCCO5)cc2)CC(C)O1 (stereo unspecified) | inactive
COc1ccc(C(=O)N2CCCC2(C#N)c2ccccc2)cc1[N+](=O)[O-] (stereo unspecified) | inconclusive: 8.28 µM [inhibitor, partial curve, poor fit]
Cc1ccc(N2C(=O)N3[C@H](c4ccc(Br)cc4)[C@@H]4C(=O)N(C(C)(C)C)C(=O)[C@@H]4[C@]3(C)C2=O)cc1 | inconclusive: 9.28 µM [inhibitor, single point]
CCOC(=O)c1c(C)nn(Cc2ccccc2)c1N | active: 5.22 µM
CCC(C)Oc1ccccc1C1CC(=O)NC2=C1C(=O)CCC2 (stereo unspecified) | inconclusive: 18.5 µM [inhibitor, single point]
CC(=O)c1ccc(N2C(=NC(=O)CCc3ccccc3)SC3CS(=O)(=O)CC32)cc1 (stereo unspecified) | inconclusive: 18.5 µM [inhibitor, single point]
CC(C(=O)OCc1nnc(-c2ccccc2)o1)N1C(=O)c2ccccc2C1=O (stereo unspecified) | inactive
COc1ccccc1CCNC(=O)/C(=C/c1cccnc1)NC(=O)c1ccccc1 | active: 10.4 µM
Cn1ncc2c(c(SCc3ccc(Cl)cc3Cl)nn2C)c1=O | inconclusive: 13.1 µM [inhibitor, partial curve, poor fit]
c1ccc(C2CC2)c(OCC2=NCCN2)c1 | inconclusive: 0.478 µM [inhibitor, full curve]
O=C(c1ccccc1)N1CCC2(CC1)OCCO2 | inactive
Cc1cc(C)c(S(=O)(=O)/N=C2\C=C(NS(=O)(=O)c3ccccc3)C(=O)c3ccccc32)c(C)c1 | inactive
CC(C)(C)NC(=O)CSc1ncccc1-c1nc2ccccc2[nH]1 | inconclusive: 18.5 µM [inhibitor, single point]
O=C(CSc1cccc2cccnc12)Nc1ccccc1F | inconclusive: 18.5 µM [inhibitor, single point]
COc1ccc(/C=N/Nc2nc(=O)[nH]nc2C)cc1[N+](=O)[O-] | inconclusive: 3.7 µM [inhibitor, single point]
Cc1ccc(C2c3[nH]c4ccccc4c3C[C@H]3C(=O)N(c4ccccc4C(=O)NCCCN4CCOCC4)C(=O)N23)cc1 (stereo partly specified) | inconclusive: 5.86 µM [inhibitor, partial curve, poor fit]
c1ccc(CNc2ncnc3c2cnn3-c2ccccc2)cc1 | inactive
CCCCn1c(SCC(=O)NCc2ccc(OC)c(C(=O)O)c2)nc2cc(S(N)(=O)=O)ccc21 | inactive
